{"source": "PubChem BioAssay AID540256", "about": "(National Center for Advancing Translational Sciences (NCATS), 2011)", "note": "Hit rate of the full screen: of about 300,000 compounds, about 3,700 (1.2%) were called active. This list was built around the results that the source calls inconclusive (neither active nor inactive); the mix of calls is not that of the screen. The call rests on the fitted dose curve; tested in HEK293 cells. Potencies beside an inconclusive call are fits to weak or partial responses and may not hold up. Potency means the concentration at half of the fitted maximal effect.", "data": [{"assay": "qHTS for Inhibitors of binding or entry into cells for Lassa Virus; further: nearly all actives have a fitted effect of over 50% in size", "conditions": "Lassa virus pseudotype entry inhibition, cell reporter; series mostly up to 37.9 µM", "values": [{"smiles": "COc1ccc(CN(CCCN2CCOCC2)C(=O)Nc2cccc(Cl)c2)cc1OC", "Potency": "inactive"}, {"smiles": "CCCN1C(=O)c2[nH]nc(-c3ccccc3O)c2C1c1ccc(OCc2ccccc2)c(OC)c1", "note": "(stereo unspecified)", "Potency": "inconclusive: 0.891 µM [inhibitor, full curve, poor fit]"}, {"smiles": "CC(=O)c1ccc(S(=O)(=O)N2CCN(C(=O)c3ccc(N)c([N+](=O)[O-])c3)CC2)cc1", "Potency": "inactive"}, {"smiles": "CCN(CC)CCn1c2ccccc2c(=O)c2c(O)ccc(O)c21", "Potency": "inconclusive: 12.6 µM [activator, partial curve, poor fit]"}, {"smiles": "CC1CCC/C(=C\\Nc2ccc(C(=O)O)cc2)C1=O", "note": "(stereo unspecified)", "Potency": "inconclusive: 10 µM [inhibitor, single point]"}, {"smiles": "CCn1ncc(NC(=S)Nc2ccc3c(c2)OCO3)c1C(N)=O", "Potency": "inactive"}, {"smiles": "N=C1/C(=C\\c2ccc(-c3cccc(Cl)c3)o2)C(=O)N=C2SC=C(c3ccccc3)N12", "Potency": "inconclusive: 14.1 µM [inhibitor, single point]"}, {"smiles": "O=C(COc1cccnc1[N+](=O)[O-])N1CCN(C(=O)c2ccco2)CC1", "Potency": "inconclusive: 0.398 µM [inhibitor, partial curve, poor fit]"}, {"smiles": "COc1cc2c(oc(=O)c3cc(C)cc(OC)c32)c2c(C3OC(C)C(O)C(C)(O)C3O)ccc(O)c12", "note": "(stereo unspecified)", "Potency": "inconclusive: 0.562 µM [inhibitor, full curve, poor fit]"}, {"smiles": "O=C(CN(C(=O)c1csnn1)c1ccc(Cl)cc1)NC1CCCC1", "Potency": "inactive"}, {"smiles": "Cc1cc(Cl)n2nc(C)c(-c3ccc(Cl)cc3)c2n1", "Potency": "active: 15.8 µM"}, {"smiles": "CC1(C)c2ccccc2-c2nc3ccccc3cc2C1N1CCOCC1", "note": "(stereo unspecified)", "Potency": "inconclusive: 1 µM [inhibitor, full curve, poor fit]"}, {"smiles": "COc1ccccc1-n1cnnc1SCC(=O)c1ccc[nH]1", "Potency": "inconclusive: 1 µM [activator, single point]"}, {"smiles": "Cc1nn(Cc2ccccc2Cl)c(C)c1NC(=O)c1cc(C(C)C)on1", "Potency": "inconclusive: 12.6 µM [inhibitor, single point]"}, {"smiles": "COc1cccc(N2CCN(CC(=O)NC(=O)NC3CCCCC3)CC2)c1", "Potency": "inconclusive: 0.398 µM [activator, single point]"}, {"smiles": "O=C(NCCN1CCOCC1)c1cc(-c2cccc(Cl)c2)on1", "Potency": "inconclusive: 14.1 µM [activator, single point]"}, {"smiles": "CN(C)CCCCOc1ccc(F)cc1", "Potency": "inactive"}, {"smiles": "COc1ccc(F)cc1C(=O)C1CCCN(Cc2cn(C)c3ccccc23)C1", "note": "(stereo unspecified)", "Potency": "inconclusive: 14.1 µM [inhibitor, single point]"}, {"smiles": "CCOc1ccc(-n2c(C)nc3cc(C(=O)NCC4CCCO4)ccc32)cc1", "note": "(stereo unspecified)", "Potency": "active: 5.01 µM"}, {"smiles": "COc1cccc(CN(C(=O)COc2ccc(C)cc2)C2CCS(=O)(=O)C2)c1", "note": "(stereo unspecified)", "Potency": "inconclusive: 7.08 µM [inhibitor, partial curve, poor fit]"}, {"smiles": "CC(=O)C1=C(O)C(=O)N(c2nccs2)C1c1ccccc1F", "note": "(stereo unspecified)", "Potency": "inconclusive: 35.5 µM [inhibitor, single point]"}, {"smiles": "O=C(Nc1ccc2c(c1)C(=O)OC2)c1ccc(F)cc1F", "Potency": "inconclusive: 3.16 µM [activator, full curve, poor fit]"}, {"smiles": "O=C(O)c1ccc(Sc2ccccn2)c([N+](=O)[O-])c1", "Potency": "inconclusive: 7.08 µM [activator, partial curve, poor fit]"}, {"smiles": "COc1ccc(NC(=O)c2ccc(Cl)nc2)cc1S(=O)(=O)N1CCCCC1", "Potency": "inactive"}, {"smiles": "OCCN1CCN(CC/C=C2/c3ccccc3Sc3ccc(C(F)(F)F)cc32)CC1", "Potency": "active: 5.8 µM"}, {"smiles": "COCCCNC(=S)NC(=O)c1ccc(C)cc1", "Potency": "inconclusive: 0.291 µM [inhibitor, partial curve]"}, {"smiles": "NC(=O)CSc1oc(-c2ccco2)nc1S(=O)(=O)c1ccc(Cl)cc1", "Potency": "inactive"}, {"smiles": "COc1ccc(CCCC(=O)O)c(C)c1", "Potency": "inconclusive: 0.231 µM [inhibitor, partial curve, poor fit]"}, {"smiles": "COc1ccc(CN2CCCCCC2)c(C)c1C", "Potency": "inactive"}, {"smiles": "CCCS(=O)(=O)NCCc1cc2ccc(C)cc2[nH]c1=O", "Potency": "inconclusive: 6.51 µM [inhibitor, single point]"}, {"smiles": "Cc1cc2c(cc1NC(=O)c1ccc(C(C)(C)C)cc1)n(C)c(=O)c(=O)n2C", "Potency": "inactive"}, {"smiles": "COc1cc(-c2nc3ccccn3c2/N=C/c2cc(OC)c(O)cc2Cl)ccc1O", "Potency": "inactive"}, {"smiles": "COc1ccc(N2CCN(C(CNC(=O)c3ccc(C)cc3)c3ccc4c(c3)OCO4)CC2)cc1", "note": "(stereo unspecified)", "Potency": "inconclusive: 10 µM [inhibitor, partial curve, poor fit]"}, {"smiles": "O=C(/C=C/c1ccccc1)Nn1c(-c2cccs2)nc2ccccc2c1=O", "Potency": "inactive"}, {"smiles": "C=CCC(O)c1c(-c2ccccc2)nn(C)c1Cl", "note": "(stereo unspecified)", "Potency": "inconclusive: 1.78 µM [inhibitor, partial curve, poor fit]"}, {"smiles": "Cc1cc(Cl)c(OCCCNC2CCCC2)c(Br)c1", "Potency": "inconclusive: 11.2 µM [inhibitor, partial curve, poor fit]"}, {"smiles": "Cc1cccc(C(=O)Nc2ccccc2SCC(=O)Nc2ccc(C)c(Cl)c2)c1", "Potency": "inconclusive: 35.5 µM [inhibitor, partial curve, poor fit]"}, {"smiles": "c1ccc(-c2nnc3sc(-c4csc5c4CCCC5)nn23)cc1", "Potency": "inconclusive: 35.5 µM [inhibitor, single point]"}, {"smiles": "Cc1cc(NC(=O)CSc2nc(N)c(NC(=O)c3ccccc3F)c(=O)[nH]2)no1", "Potency": "inconclusive: 1.12 µM [inhibitor, partial curve, poor fit]"}, {"smiles": "CSc1ccc(CN(C)C(=O)CNC(=O)c2ccc3c(c2)OCO3)cc1", "Potency": "inactive"}, {"smiles": "CC(=O)Nc1ccc(S(=O)(=O)N2CCSC2c2ccc(Cl)cc2)cc1", "note": "(stereo unspecified)", "Potency": "inconclusive: 29.1 µM [inhibitor, single point]"}, {"smiles": "Cc1ccc2sc(N(CCCN(C)C)C(=O)c3ccc(S(=O)(=O)N(C)C4CCCCC4)cc3)nc2c1C", "Potency": "active: 12.6 µM"}, {"smiles": "Cc1ccccc1Nc1nc(N)nc(COC(=O)c2cccc(S(=O)(=O)N(C)C)c2)n1", "Potency": "inactive"}, {"smiles": "Cc1ccc(C)c(CSc2c(C(C)C)cnc3c2c(=O)n(C)c(=O)n3C)c1", "Potency": "inactive"}, {"smiles": "Cc1cc(C)c(OCCNCc2ccccc2)c(C)c1", "Potency": "inconclusive: 35.5 µM [inhibitor, single point]"}, {"smiles": "CN=C1c2cc3cc(OC)ccc3n2CCN1Cc1ccccc1", "Potency": "inconclusive: 7.94 µM [inhibitor, partial curve, poor fit]"}, {"smiles": "CN1CCN(C(=O)c2cnn(-c3cccc(F)c3)c2C2CCN(C(=O)OC(C)(C)C)CC2)CC1", "Potency": "inconclusive: 3.98 µM [inhibitor, full curve, poor fit]"}, {"smiles": "O=C(c1cc(F)ccc1F)C1CCCN(Cc2cc(Cl)ccc2O)C1", "note": "(stereo unspecified)", "Potency": "inactive"}, {"smiles": "COc1ccc(OC)c(S(=O)(=O)NCCc2ccccc2)c1", "Potency": "inconclusive: 3.26 µM [activator, single point]"}, {"smiles": "CC(=O)Nc1ccc(CC(=O)NCCC(c2ccccc2)c2ccccc2)cc1", "Potency": "active: 0.891 µM"}, {"smiles": "CC(=O)OCC1=C(C(=O)O)N2C(=O)[C@@H](NC(=O)CCC[C@@H](N)C(=O)O)[C@H]2SC1", "Potency": "inactive"}, {"smiles": "O=C(N/N=C/c1cccnc1)C(=O)N1CCCCCC1", "Potency": "inactive"}, {"smiles": "Cc1ccc(-c2nc(Nc3ccccc3)n[nH]2)cc1", "Potency": "inconclusive: 0.112 µM [activator, full curve, poor fit]"}, {"smiles": "CS(=O)(=O)N1CCN(CC(=O)NC2CCCCC2)CC1", "Potency": "inactive"}, {"smiles": "O=C1CN(C(=O)C2CCCCC2)C(c2ccccc2)c2cc(F)ccc2N1", "note": "(stereo unspecified)", "Potency": "inactive"}, {"smiles": "Cc1ccc(-c2nc3ccccc3s2)cc1NC(=O)c1cc(-n2cnnc2)ccc1Cl", "Potency": "inconclusive: 0.058 µM [activator, full curve, poor fit]"}, {"smiles": "CCOc1ccc(C2c3c(oc4ccc(C)cc4c3=O)C(=O)N2c2nc(C)c(C)s2)cc1OC", "note": "(stereo unspecified)", "Potency": "inconclusive: 8.91 µM [activator, partial curve, poor fit]"}, {"smiles": "CCOC(=O)c1cnc2ccc(OCC)cc2c1N1CCN(c2cccc(Cl)c2)CC1", "Potency": "inactive"}, {"smiles": "O=C(CN1C(=O)COc2ccc(S(=O)(=O)N3CCCC3)cc21)N1CCN(c2ccccc2F)CC1", "Potency": "inconclusive: 15.8 µM [activator, partial curve, poor fit]"}, {"smiles": "N/C(Cc1nc(-c2ccc(Cl)cc2)cs1)=N/O", "Potency": "inactive"}, {"smiles": "CCN(CC)CCNC(=O)c1ccc(NC(=O)c2cc(S(=O)(=O)N3CCCCC3)ccc2N2CCOCC2)cc1", "Potency": "inactive"}, {"smiles": "CCOc1ccc(C(=O)C(C)=O)c(OCC)c1", "Potency": "inconclusive: 6.31 µM [inhibitor, partial curve, poor fit]"}, {"smiles": "CC(C)c1ccc(NC(=O)C(c2ccc3c(c2)OCO3)N2CCC3(CC2)OCCO3)cc1", "note": "(stereo unspecified)", "Potency": "inconclusive: 15.8 µM [inhibitor, single point]"}, {"smiles": "Cc1ccc(CN2C(=O)COc3cc(NS(C)(=O)=O)ccc32)cc1", "Potency": "inconclusive: 25.1 µM [inhibitor, partial curve, poor fit]"}, {"smiles": "Cc1cc(N2CCN(C(=O)c3ccco3)CC2)n2ncc(-c3ccccc3)c2n1", "Potency": "inactive"}, {"smiles": "COc1ccc(-c2cc(C(F)(F)F)nc(S(=O)(=O)CCC(=O)N3CCOCC3)n2)cc1", "Potency": "inconclusive: 35.5 µM [inhibitor, single point]"}, {"smiles": "COC(=O)c1cc(S(=O)(=O)N2CCN(c3ccc(C)cc3C)CC2)cn1C", "Potency": "inactive"}, {"smiles": "Cc1cc2nc(C3CCN(Cc4nnnn4Cc4ccccc4)CC3)[nH]c2cc1C", "Potency": "inactive"}, {"smiles": "CN(Cc1ccccc1)c1oc(-c2ccco2)nc1C#N", "Potency": "inactive"}, {"smiles": "COc1ccc2[nH]c3c(NCc4ccco4)ncnc3c2c1", "Potency": "inactive"}, {"smiles": "Cc1nc(-c2ccc(S(=O)(=O)N3CCOCC3)cc2)cs1", "Potency": "inconclusive: 3.55 µM [activator, partial curve, poor fit]"}]}]}
